Assay results: US20240156836A1, “METHODS OF TREATING TE[…]” (priority 2018, published 2024)

Assay: Influence of blood collection tubes: ex vivo TU to T conversion and serum / NaF-EDTA plasma T conversion factor

Structure (SMILES): C[C@]12CC[C@H]3[C@@H](CCC4=CC(=O)CC[C@@]43C)[C@@H]1CC[C@@H]2O [T, Testosterone]
- expected equivalent T concentration in NaF-EDTA plasma as percent of the serum value: 82.4%
- matrix effect associated with NaF-EDTA plasma compared to serum: 0.858
